The other results are listed elsewhere or left out.
Each target was assayed with COC(=O)[C@H](CCSC)NC(=O)C1=C(C=C(C=C1)NC[C@H](CS)N)C2=CC=CC=C2 (assay: log2 fold change, soluble protein after heating vs DMSO (PISA); higher = thermal stabilisation; K562 cells, 10 uM, 30 min; active = over 0.2 and 3.5 SD of the protein, either way, in both replicates (recomputed)).
In short: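 Soluble protein was defined as the supernatant after 21,000xg for 90 min. It came from K562 cells at 2×10^6 cells/mL given 10 μM compound for 30 min, heated in aliquots for 3 min across 48°C-58°C, pooled, and extracted in PBS with 0.5% NP-40 at 4°C, and was quantified by TMTpro 16plex LC-MS/MS with equalised channel sums. Thermal stability against control samples, from duplicates, is reported as log2 fold change.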

The chains behind the UniProt entries cited, without tags or fusion partners. Where a name states a change or a piece, a line headed by the entry shows the natural chain unless it says otherwise.
UniProt Q9NZR1: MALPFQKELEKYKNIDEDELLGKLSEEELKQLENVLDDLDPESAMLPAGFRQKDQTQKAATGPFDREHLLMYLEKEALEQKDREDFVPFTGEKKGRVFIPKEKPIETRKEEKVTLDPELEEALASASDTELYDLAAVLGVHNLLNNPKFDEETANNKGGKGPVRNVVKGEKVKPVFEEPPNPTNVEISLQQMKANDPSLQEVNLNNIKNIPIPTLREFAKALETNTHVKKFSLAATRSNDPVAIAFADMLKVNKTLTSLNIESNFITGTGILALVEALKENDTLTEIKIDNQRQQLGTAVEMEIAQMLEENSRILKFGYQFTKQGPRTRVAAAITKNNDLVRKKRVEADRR
UniProt Q9P0S9: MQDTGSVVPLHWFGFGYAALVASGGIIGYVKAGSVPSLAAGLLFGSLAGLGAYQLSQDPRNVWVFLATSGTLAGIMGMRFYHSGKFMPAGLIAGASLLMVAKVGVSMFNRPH
UniProt Q9BVC6: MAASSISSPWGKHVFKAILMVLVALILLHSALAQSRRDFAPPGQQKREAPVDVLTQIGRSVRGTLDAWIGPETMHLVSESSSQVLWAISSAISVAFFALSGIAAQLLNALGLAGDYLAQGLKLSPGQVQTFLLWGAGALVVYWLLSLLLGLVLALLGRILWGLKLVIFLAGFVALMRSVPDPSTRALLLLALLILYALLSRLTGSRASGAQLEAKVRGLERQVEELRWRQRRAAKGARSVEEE
UniProt Q9BRN9: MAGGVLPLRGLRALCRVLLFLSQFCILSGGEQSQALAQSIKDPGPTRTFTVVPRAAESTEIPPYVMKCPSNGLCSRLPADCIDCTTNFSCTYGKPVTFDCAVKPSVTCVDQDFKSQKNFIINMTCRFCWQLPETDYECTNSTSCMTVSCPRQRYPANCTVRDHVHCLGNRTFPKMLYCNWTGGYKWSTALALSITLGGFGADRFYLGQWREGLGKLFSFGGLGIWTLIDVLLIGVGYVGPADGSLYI
UniProt Q96I45: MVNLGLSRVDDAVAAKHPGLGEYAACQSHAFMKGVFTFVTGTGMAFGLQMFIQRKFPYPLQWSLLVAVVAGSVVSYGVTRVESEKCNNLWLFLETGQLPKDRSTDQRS
UniProt Q8NBN3: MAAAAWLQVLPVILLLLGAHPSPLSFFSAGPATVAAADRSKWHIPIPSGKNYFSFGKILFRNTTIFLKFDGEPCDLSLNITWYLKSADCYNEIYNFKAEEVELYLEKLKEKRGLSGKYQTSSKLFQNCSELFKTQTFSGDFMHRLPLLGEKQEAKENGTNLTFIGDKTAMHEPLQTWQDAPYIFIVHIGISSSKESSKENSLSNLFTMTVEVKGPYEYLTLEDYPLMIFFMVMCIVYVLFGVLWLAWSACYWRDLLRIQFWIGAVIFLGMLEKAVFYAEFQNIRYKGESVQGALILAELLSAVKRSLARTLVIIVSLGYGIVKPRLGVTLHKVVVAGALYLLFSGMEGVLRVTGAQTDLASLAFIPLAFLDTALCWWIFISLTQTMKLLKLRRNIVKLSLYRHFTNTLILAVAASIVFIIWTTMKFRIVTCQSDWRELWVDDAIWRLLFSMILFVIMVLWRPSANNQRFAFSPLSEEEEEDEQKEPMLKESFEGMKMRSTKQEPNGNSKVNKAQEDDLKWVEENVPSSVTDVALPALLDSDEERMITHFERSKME
UniProt Q9Y490: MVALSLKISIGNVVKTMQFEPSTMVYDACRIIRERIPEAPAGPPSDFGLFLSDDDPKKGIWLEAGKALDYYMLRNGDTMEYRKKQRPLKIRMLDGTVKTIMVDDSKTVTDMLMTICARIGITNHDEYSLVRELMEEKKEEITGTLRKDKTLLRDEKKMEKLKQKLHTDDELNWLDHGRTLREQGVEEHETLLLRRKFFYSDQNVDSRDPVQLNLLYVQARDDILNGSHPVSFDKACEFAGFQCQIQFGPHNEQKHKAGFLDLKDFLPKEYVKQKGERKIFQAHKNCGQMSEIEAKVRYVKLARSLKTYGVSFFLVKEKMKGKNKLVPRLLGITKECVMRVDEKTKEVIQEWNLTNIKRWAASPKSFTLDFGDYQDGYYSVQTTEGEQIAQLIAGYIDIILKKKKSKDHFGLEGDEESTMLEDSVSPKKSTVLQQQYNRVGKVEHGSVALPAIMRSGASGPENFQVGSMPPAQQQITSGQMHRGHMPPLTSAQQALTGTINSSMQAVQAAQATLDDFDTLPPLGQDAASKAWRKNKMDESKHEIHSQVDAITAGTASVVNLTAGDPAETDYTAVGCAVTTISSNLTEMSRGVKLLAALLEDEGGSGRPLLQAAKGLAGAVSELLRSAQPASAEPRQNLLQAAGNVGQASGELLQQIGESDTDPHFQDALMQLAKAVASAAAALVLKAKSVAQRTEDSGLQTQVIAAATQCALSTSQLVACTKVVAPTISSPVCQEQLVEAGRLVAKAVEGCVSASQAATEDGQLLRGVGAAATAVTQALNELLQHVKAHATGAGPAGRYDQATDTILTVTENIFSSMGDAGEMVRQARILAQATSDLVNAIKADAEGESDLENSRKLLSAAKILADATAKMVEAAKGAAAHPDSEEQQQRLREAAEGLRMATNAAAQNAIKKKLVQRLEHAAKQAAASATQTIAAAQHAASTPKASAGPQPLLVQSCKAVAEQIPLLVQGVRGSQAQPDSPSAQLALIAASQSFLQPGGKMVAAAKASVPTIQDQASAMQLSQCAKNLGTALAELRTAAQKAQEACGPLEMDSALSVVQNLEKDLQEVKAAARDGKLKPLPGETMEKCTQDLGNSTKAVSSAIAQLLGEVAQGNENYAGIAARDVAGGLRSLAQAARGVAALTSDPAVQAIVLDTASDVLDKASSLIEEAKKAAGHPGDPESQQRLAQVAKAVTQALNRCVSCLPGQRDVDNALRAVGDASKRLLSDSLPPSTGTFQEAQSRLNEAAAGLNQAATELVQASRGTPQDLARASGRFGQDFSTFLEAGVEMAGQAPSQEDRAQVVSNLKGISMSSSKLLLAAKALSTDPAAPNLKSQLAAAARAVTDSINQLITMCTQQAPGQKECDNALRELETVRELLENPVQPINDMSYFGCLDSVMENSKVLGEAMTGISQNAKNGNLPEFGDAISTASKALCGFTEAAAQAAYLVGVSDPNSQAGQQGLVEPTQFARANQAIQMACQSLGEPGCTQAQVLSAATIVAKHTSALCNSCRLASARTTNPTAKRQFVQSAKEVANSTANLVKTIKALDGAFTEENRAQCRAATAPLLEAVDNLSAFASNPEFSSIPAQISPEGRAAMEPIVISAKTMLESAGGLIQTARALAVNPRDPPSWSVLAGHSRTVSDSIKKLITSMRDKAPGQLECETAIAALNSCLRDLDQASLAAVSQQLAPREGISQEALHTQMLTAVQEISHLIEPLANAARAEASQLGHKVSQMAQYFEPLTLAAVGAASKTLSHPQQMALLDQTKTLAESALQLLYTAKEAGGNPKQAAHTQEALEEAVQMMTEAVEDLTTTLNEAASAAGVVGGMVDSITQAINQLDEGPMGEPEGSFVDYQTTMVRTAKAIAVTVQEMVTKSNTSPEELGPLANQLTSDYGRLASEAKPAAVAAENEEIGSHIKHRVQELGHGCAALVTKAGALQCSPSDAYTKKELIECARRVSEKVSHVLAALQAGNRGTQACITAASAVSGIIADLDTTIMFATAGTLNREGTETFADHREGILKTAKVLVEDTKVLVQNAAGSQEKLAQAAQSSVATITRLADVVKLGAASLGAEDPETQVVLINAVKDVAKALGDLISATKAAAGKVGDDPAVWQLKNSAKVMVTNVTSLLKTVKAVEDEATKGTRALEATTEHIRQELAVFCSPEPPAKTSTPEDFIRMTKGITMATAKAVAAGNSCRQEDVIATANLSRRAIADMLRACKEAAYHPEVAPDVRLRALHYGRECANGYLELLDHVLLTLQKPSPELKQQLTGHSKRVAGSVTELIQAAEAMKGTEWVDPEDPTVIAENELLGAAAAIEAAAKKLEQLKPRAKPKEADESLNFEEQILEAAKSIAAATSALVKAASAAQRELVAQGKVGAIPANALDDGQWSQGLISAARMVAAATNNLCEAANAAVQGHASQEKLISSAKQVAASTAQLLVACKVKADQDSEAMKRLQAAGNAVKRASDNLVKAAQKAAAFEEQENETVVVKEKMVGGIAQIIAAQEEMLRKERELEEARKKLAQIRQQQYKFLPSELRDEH
UniProt Q9NX00: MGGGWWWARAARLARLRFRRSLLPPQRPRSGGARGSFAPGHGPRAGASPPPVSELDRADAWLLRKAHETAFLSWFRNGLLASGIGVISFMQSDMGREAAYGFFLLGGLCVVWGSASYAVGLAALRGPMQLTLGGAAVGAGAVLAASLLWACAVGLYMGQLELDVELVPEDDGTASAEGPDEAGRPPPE
UniProt Q9H0R3: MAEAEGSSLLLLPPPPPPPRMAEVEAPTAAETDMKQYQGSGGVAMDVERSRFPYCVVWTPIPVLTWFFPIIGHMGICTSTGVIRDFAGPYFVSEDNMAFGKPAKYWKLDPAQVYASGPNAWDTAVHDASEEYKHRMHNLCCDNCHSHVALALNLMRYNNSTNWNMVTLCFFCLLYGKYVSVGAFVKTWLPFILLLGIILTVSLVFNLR
UniProt Q9UM00: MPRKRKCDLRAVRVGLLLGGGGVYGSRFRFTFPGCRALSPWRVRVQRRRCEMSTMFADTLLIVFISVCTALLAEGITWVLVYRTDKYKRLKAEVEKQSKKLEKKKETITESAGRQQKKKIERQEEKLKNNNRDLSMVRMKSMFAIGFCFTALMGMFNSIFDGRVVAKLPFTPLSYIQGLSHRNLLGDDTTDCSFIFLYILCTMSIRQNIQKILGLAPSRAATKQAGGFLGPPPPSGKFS
UniProt Q9H0V1: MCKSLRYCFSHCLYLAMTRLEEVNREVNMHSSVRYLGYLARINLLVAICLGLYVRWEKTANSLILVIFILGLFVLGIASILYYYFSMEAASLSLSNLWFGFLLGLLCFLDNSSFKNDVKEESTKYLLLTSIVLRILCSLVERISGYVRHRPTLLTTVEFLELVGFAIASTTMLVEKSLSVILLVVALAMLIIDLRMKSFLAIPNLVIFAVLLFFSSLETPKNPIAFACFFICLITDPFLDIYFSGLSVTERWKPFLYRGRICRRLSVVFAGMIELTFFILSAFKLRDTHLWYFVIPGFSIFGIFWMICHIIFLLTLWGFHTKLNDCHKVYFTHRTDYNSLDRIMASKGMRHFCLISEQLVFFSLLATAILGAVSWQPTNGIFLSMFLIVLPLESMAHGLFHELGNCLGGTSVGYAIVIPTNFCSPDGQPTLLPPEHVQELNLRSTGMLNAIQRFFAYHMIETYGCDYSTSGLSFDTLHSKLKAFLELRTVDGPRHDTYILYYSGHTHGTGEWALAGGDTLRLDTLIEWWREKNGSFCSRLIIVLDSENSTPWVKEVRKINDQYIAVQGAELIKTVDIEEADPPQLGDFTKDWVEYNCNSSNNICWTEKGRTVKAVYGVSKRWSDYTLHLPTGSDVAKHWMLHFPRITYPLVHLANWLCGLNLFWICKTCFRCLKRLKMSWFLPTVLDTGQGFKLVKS
UniProt P42166: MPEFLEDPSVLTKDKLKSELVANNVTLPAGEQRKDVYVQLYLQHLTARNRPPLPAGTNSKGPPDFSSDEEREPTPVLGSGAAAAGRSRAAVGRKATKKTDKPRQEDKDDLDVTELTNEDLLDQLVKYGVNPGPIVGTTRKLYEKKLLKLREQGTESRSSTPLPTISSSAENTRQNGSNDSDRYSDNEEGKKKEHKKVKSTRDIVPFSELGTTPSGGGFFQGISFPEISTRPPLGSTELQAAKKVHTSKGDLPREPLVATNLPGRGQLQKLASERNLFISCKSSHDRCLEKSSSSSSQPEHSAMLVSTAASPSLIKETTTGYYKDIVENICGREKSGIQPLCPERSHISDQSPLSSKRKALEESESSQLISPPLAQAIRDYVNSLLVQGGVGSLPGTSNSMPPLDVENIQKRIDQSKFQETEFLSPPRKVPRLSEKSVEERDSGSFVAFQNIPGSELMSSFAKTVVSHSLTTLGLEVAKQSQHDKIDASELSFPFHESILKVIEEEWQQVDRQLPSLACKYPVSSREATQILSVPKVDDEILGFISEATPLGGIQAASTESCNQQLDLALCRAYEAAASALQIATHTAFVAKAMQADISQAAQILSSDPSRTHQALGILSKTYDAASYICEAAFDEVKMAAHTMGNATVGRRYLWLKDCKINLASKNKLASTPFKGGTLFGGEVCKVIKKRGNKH
UniProt P63313: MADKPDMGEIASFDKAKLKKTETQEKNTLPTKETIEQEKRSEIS
UniProt Q9NWD8: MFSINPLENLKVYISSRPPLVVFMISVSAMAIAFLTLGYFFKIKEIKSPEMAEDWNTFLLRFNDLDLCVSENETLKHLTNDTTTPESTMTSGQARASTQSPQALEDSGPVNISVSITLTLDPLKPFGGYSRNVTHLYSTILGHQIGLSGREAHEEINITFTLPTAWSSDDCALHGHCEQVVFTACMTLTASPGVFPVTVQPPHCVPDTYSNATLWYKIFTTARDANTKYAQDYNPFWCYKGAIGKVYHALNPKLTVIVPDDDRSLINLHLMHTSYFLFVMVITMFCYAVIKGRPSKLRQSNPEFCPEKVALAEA

log2 fold change, inactive:
TMEM245 (UniProt Q9H330) 0.057
TMEM167A (UniProt Q8TBQ9) 0.094
TMOD2 (UniProt Q9NZR1) -0.004
TMED4 (UniProt Q7Z7H5) -0.028
TMEM14C (UniProt Q9P0S9) 0.003
TLN2 (UniProt Q9Y4G6) -0.052
TMEM109 (UniProt Q9BVC6) 0.038
TM2D3 (UniProt Q9BRN9) -0.006
TMEM186 (UniProt Q96B77) -0.036
TMEM141 (UniProt Q96I45) 0.076
TMEM65 (UniProt Q6PI78) -0.05
TMEM87A (UniProt Q8NBN3) 0.012
TMEM33 (UniProt P57088) 0.005
TLN1 (UniProt Q9Y490) -0.036
TNFRSF10B (UniProt O14763) 0.026
TMEM160 (UniProt Q9NX00) -0.041
TM9SF3 (UniProt Q9HD45) 0.026
TMPO isoform 2 (UniProt P42167) 0.079
TMOD3 (UniProt Q9NYL9) -0.033
TMEM222 (UniProt Q9H0R3) 0.165
TMEM185B (UniProt Q9H7F4) -0.091
TMA16 (UniProt Q96EY4) 0.101
TMEM30A (UniProt Q9NV96) 0.045
TMEM68 (UniProt Q96MH6) 0.046
TMCO1 (UniProt Q9UM00) -0.04
TMED2 (UniProt Q15363) -0.013
TMX4 (UniProt Q9H1E5) -0.085
TMEM168 (UniProt Q9H0V1) -0.066
TMPO (UniProt P42166) 0.06
TMEM259 (UniProt Q4ZIN3) -0.013
TMSB10 (UniProt P63313) 0.13
TMEM248 (UniProt Q9NWD8) 0.067
TMED3 (UniProt Q9Y3Q3) 0.077
TMEM209 (UniProt Q96SK2) -0.069
TMEM230 isoform 2 (UniProt Q96A57) 0.023
TMED1 (UniProt Q13445) 0.061
TMPO (UniProt P42167) -0.014
TMEM62 (UniProt Q0P6H9) 0.026
TMEM11 (UniProt P17152) -0.023

At a glance, part of the list above.
log2 fold change, inactive:
TMEM230 isoform 2 (UniProt Q96A57) 0.023
TMED1 (UniProt Q13445) 0.061
